Reference: PubChem BioAssay AID504784 (Drosophila RNAi Screening Center, 2011)
Aim: 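Fly genes whose silencing alters how much lipid cells keep in droplets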 (primary screen). Cell system: Drosophila Kc167 embryonic cells. Reagents: long dsRNA against Drosophila genes, about 250 ng dsRNA per well. Timing: 4 days. Treatment: cells fed 400 µM oleic acid bound to BSA. Read-out: 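Cells imaged and segmented; ratio of lipid droplet area to nuclear area, log-transformed, then normalised as a B-score over the screen; higher means more stored lipid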. Scale: droplet/nuclear area B-score: higher = more stored lipid (overstorage).
The screen tested about 17,000 reagents; this is an unselected part of those that have a named target and a result. 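Each column is one replicate's B-score; the combined score over replicates was not deposited, so single values may mislead.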 Names joined by + are all predicted targets of the reagent.

| Target gene | DRSC id | droplet/nuclear area B-score, replicate 1 | droplet/nuclear area B-score, replicate 2 | droplet/nuclear area B-score, replicate 3 |
| --- | --- | --- | --- | --- |
| CG4741 (GeneID 37939) | DRSC04485 | -0.823 | -0.145 | – |
| CG1316 (GeneID 38526) | DRSC08304 | -0.725 | 0.706 | – |
| Brr2 (GeneID 39737) | DRSC10559 | -2.48 | -0.936 | 0.213 |
| CG14230 (GeneID 32984) | DRSC19586 | 0.264 | -0.738 | – |
| CG33964 + CG13175 | DRSC06300 | -1.07 | 1.44 | – |
| CG33964 + CG13175 | DRSC06301 | 1.87 | 2.84 | – |
| CG33964 + CG13175 | DRSC07184 | -0.94 | -2.69 | – |
| CG30466 (GeneID 246629) | DRSC05556 | -1.58 | 0.427 | – |
| CG5704 (GeneID 48613) | DRSC08572 | 2.75 | -0.0746 | – |
| CG5597 (GeneID 37789) | DRSC04517 | 0.495 | 1.04 | – |
| Gcn2 (GeneID 43709) | DRSC16678 | -2.52 | 8.37 | – |
| CG5290 (GeneID 39998) | DRSC10501 | 0.442 | 0.0989 | 1.42 |
| RpL29 (GeneID 37430) | DRSC04650 | -2.18 | 0.603 | – |
| CG34406 (retired record) (GeneID 33536) | DRSC00523 | 0.762 | 0.943 | – |
| CG34406 (retired record) (GeneID 33536) | DRSC00606 | -0.251 | -0.208 | – |
| Jhbp5 (GeneID 41949) | DRSC14240 | 0.222 | 0.108 | – |
| mRpS33 (GeneID 41991) | DRSC14239 | 1.98 | 4.11 | – |
| CG11362 (GeneID 37574) | DRSC04106 | -1 | -1.81 | – |
| CG11362 (GeneID 37574) | DRSC22032 | -0.701 | 0.0447 | – |
| CG14518 (GeneID 43421) | DRSC14870 | 1.22 | -1.06 | – |
| CG15712 (GeneID 36843) | DRSC06583 | -0.0307 | -0.184 | – |
| rasp (GeneID 44098) | DRSC08191 | 0.468 | 2.16 | – |
| CG13609 (GeneID 42883) | DRSC14612 | -0.111 | -2.37 | – |
| CG13609 (GeneID 42883) | DRSC22843 | -1.19 | 3.01 | – |
| Polr3C (GeneID 41542) | DRSC14490 | 0.111 | 0.285 | – |
| atos (GeneID 36243) | DRSC07318 | 3.94 | 0.0798 | – |
| MCTS1 (GeneID 31536) | DRSC18393 | 1.94 | -1.26 | -0.254 |
| CG6685 (GeneID 39172) | DRSC10695 | 1.64 | 0.227 | – |
| Ance-5 (GeneID 37980) | DRSC04055 | -0.475 | 0.497 | – |
| CG18343 (GeneID 36297) | DRSC06726 | -1.49 | 0.0396 | – |
| CG7695 (GeneID 42234) | DRSC16289 | -0.218 | 0.44 | – |
| CG9967 (GeneID 33414) | DRSC00742 | 0.226 | -4.37 | -0.614 |
| CG14860 (GeneID 41803) | DRSC14983 | 2.44 | 0.427 | – |
| Art7 (GeneID 37664) | DRSC04588 | -0.806 | -0.485 | – |
| Nrg (GeneID 31792) | DRSC17573 | -1.24 | -1.32 | – |
| Nrg (GeneID 31792) | DRSC18688 | 0.0484 | 1.89 | 1.31 |
| mRpL10 (GeneID 33182) | DRSC00312 | 2.61 | -0.462 | – |
| Gmppa (GeneID 36730) | DRSC07108 | -0.603 | -0.718 | – |
| CG33232 (retired record) (GeneID 2769004) | DRSC08187 | 1.85 | -0.467 | – |
| CG33232 (retired record) (GeneID 2769004) | DRSC08495 | -0.23 | -1.29 | – |
| Fdx2 (GeneID 38530) | DRSC08306 | -1.34 | -2.11 | – |
| CG33062 (GeneID 318840) | DRSC22195 | -1.14 | -1.55 | – |
| CG11200 (GeneID 37301) | DRSC06060 | -0.908 | 0.736 | – |
| TotF (GeneID 117461) | DRSC02305 | -0.961 | -0.146 | – |
| CG2574 (GeneID 32190) | DRSC19862 | 3.31 | 2.85 | 0.543 |
| viaf (GeneID 39364) | DRSC10326 | 1.22 | -0.355 | – |
| CG12902 (GeneID 36092) | DRSC06217 | -0.389 | -0.558 | – |
| CG4712 (GeneID 36469) | DRSC06882 | 0.0518 | -0.023 | – |
| bond (GeneID 42657) | DRSC16135 | 0.33 | -0.00322 | – |
| Jon99Ciii (GeneID 43543) | DRSC16859 | 0.34 | 1.33 | – |
| Ctr1C (GeneID 43668) | DRSC15089 | -1.27 | 0.38 | – |
| ouib (GeneID 41039) | DRSC14376 | 0.561 | -0.0582 | – |
| Dtd (GeneID 41371) | DRSC15362 | -0.777 | -0.641 | – |
| CG31689 (GeneID 326154) | DRSC00734 | 1.67 | -1.96 | – |
| Cyp6g2 (GeneID 36317) | DRSC07387 | 0.679 | -1.22 | – |
| CG34337 (GeneID 5740569) | DRSC18435 | 1.41 | -1.19 | – |
| Ir60e (GeneID 37917) | DRSC04227 | 1.61 | 0.0548 | – |
| Plc21C (GeneID 33204) | DRSC00773 | -1.96 | -2.75 | – |
| CG17732 (GeneID 40182) | DRSC10283 | 1.04 | 1.16 | – |
| Gsc (GeneID 33240) | DRSC00755 | -0.56 | 1.32 | – |
| CG10680 (GeneID 35282) | DRSC02093 | 2.17 | -0.0377 | – |
| CG32706 + CG6999 | DRSC18412 | -0.917 | -0.987 | -1.23 |
| CG17528 (GeneID 3355134) | DRSC07761 | 0.562 | 0.0274 | – |
| CG15353 (GeneID 50191) | DRSC00383 | -0.0196 | -0.911 | 0.634 |
| Cyp4ac2 (GeneID 33755) | DRSC03303 | -1.45 | 0.812 | – |
| Sfmbt (GeneID 34709) | DRSC02552 | 1.17 | -0.16 | – |
| CG30429 (GeneID 246609) | DRSC04040 | -0.143 | 0.0494 | – |
| CG10469 (GeneID 38696) | DRSC09729 | 0.831 | 0.872 | – |
| fs(1)h (GeneID 31722) | DRSC18778 | -0.154 | -1.66 | -0.262 |
| pygo (GeneID 43718) | DRSC14322 | -0.0212 | -0.681 | – |
| Gs2 (GeneID 32087) | DRSC20250 | -0.071 | -0.091 | 0.354 |
| CG32445 (GeneID 261603) | DRSC11678 | -1.77 | 0.192 | – |
| Plekhm1 (GeneID 37520) | DRSC04527 | 1.46 | 0.375 | – |
| p-cup (GeneID 32727) | DRSC19513 | 1.26 | 1.44 | – |
| Ns2 (GeneID 36989) | DRSC06993 | 1.24 | 3.23 | – |
| CG4676 (GeneID 36465) | DRSC06879 | -0.0132 | -0.541 | – |
| CG6484 (GeneID 36994) | DRSC06991 | -3.86 | – | – |
| fkh (GeneID 43383) | DRSC16949 | 0.126 | -1.2 | – |
| CG3625 (GeneID 33198) | DRSC00621 | -0.915 | 0.282 | – |
| CG11927 (GeneID 33687) | DRSC00337 | 0.58 | 0.595 | – |
| Ndfip (GeneID 326197) | DRSC11201 | 0.676 | 0.365 | -0.43 |
| CG3815 (GeneID 31571) | DRSC18324 | -1.46 | -0.438 | -3.33 |
| CG9030 (GeneID 32427) | DRSC20139 | -0.0062 | 1.11 | – |

Look-ups from the entries so far:
CG11362 (GeneID 37574) [DRSC22032], droplet/nuclear area B-score, replicate 1 → -0.701
Plekhm1 (GeneID 37520) [DRSC04527], droplet/nuclear area B-score, replicate 2 → 0.375
Entry of MCTS1 (GeneID 31536) [DRSC18393] under “droplet/nuclear area B-score, replicate 1”: 1.94
CG1316 (GeneID 38526) [DRSC08304], droplet/nuclear area B-score, replicate 2 = 0.706
Value of CG14518 (GeneID 43421) [DRSC14870] under “droplet/nuclear area B-score, replicate 2”: -1.06
Under “droplet/nuclear area B-score, replicate 1”, bond (GeneID 42657) [DRSC16135] is entered as 0.33
